From paper PMC12528448, “Resistance to CDK7 inhibitors directed by acquired mutation of a conserved residue in cancer cells” (The EMBO Journal, 2025)
“And” between values parts separate entries of the source, which are not always exact repeats. Equal entries are not always repeated. Further values from the same series stand in other lists.

Columns and labels:
MCF7 cells = assay: IncuCyte confluency growth, MCF7; type: cell-based, human
Protocol: (§1) To determine the IC50 of drug treatments on growth, cells were seeded in 96-well culture plates. Two days after seeding, the cells were treated with increasing concentrations of drugs and incubated for 4 days. Cell number was determined using the SRB assay (Skehan et al, [1990]), and IC50 values were calculated using non-linear regression curve fitting in GraphPad Prism v10. For all other growth experiments, cells were seeded into 96-well plates, and appropriate drugs were added 2 days after seeding. Cells were then incubated in an IncuCyte Zoom live-cell imager, with cell confluency measured every 6 h. Cell doubling times were determined by non-linear curve fitting (exponential growth equation) in GraphPad Prism v10.

[1] = test system: MCF7-CDK4^WT/D99N (CL4) cells; assay: IncuCyte confluency growth, heterozygous CDK4 D99N clone CL4; type: cell-based, human
Protocol: as §1

SMILES: CC(=O)c1c(C)c2cnc(Nc3ccc(N4CCNCC4)cn3)nc2n(C2CCCC2)c1=O [Palbociclib]
- % Conluency (MCF7 cells; MCF7, 100nM Palbociclib, 240 Hours): 99.26% and 95.89% and 98.93%
- % Conluency (MCF7 cells; MCF7, 100nM Palbociclib, 252 Hours): 99.17% and 97.06% and 98.62%
- % Conluency (MCF7 cells; MCF7, 500nM Palbociclib, 0 Hours): 5.68% and 4.70% and 9.43%
- % Conluency (MCF7 cells; MCF7, 500nM Palbociclib, 12 Hours): 9.05% and 7.22% and 14.73%
- % Conluency (MCF7 cells; MCF7, 500nM Palbociclib, 36 Hours): 15.41% and 12.51% and 23.55%
- % Conluency (MCF7 cells; MCF7, 500nM Palbociclib, 156 Hours): 46.22% and 34.56% and 61.68%
- % Conluency (MCF7 cells; MCF7, 500nM Palbociclib, 168 Hours): 48.93% and 37.64% and 66.31%
- % Conluency (MCF7 cells; MCF7, 500nM Palbociclib, 180 Hours): 50.40% and 42.26% and 62.99%
- % Conluency (MCF7 cells; MCF7, 500nM Palbociclib, 192 Hours): 53.86% and 45.23% and 67.65%
- % Conluency (MCF7 cells; MCF7, 500nM Palbociclib, 204 Hours): 59.31% and 48.73% and 70.39%
- % Conluency (MCF7 cells; MCF7, 500nM Palbociclib, 216 Hours): 62.70% and 52.14% and 74.38%
- % Conluency (MCF7 cells; MCF7, 500nM Palbociclib, 228 Hours): 66.25% and 56.49% and 78.80%
- % Conluency (MCF7 cells; MCF7, 500nM Palbociclib, 240 Hours): 68.95% and 60.03% and 80.83%
- % Conluency (MCF7 cells; MCF7, 500nM Palbociclib, 252 Hours): 72.33% and 62.89% and 83.29%
- % Conluency (MCF7 cells; MCF7, 1000nM Palbociclib, 0 Hours): 5.42% and 4.48% and 8.25%
- % Conluency (MCF7 cells; MCF7, 1000nM Palbociclib, 12 Hours): 8.70% and 6.97% and 12.50%
- % Conluency (MCF7 cells; MCF7, 1000nM Palbociclib, 24 Hours): 12.53% and 9.64% and 17.69%
- % Conluency (MCF7 cells; MCF7, 1000nM Palbociclib, 36 Hours): 14.93% and 11.85% and 20.63%
- % Conluency (MCF7 cells; MCF7, 1000nM Palbociclib, 156 Hours): 36.67% and 29.16% and 46.09%
- % Conluency (MCF7 cells; MCF7, 1000nM Palbociclib, 168 Hours): 38.61% and 30.34% and 47.45%
- % Conluency (MCF7 cells; MCF7, 1000nM Palbociclib, 180 Hours): 38.65% and 32.86% and 45.29%
- % Conluency (MCF7 cells; MCF7, 1000nM Palbociclib, 192 Hours): 40.80% and 34.16% and 47.37%
- % Conluency (MCF7 cells; MCF7, 1000nM Palbociclib, 204 Hours): 43.97% and 35.98% and 48.75%
- % Conluency (MCF7 cells; MCF7, 1000nM Palbociclib, 216 Hours): 45.95% and 37.06% and 50.37%
- % Conluency (MCF7 cells; MCF7, 1000nM Palbociclib, 228 Hours): 47.70% and 39.11% and 51.91%
- % Conluency (MCF7 cells; MCF7, 1000nM Palbociclib, 240 Hours): 49.98% and 41.67% and 53.33%
- % Conluency (MCF7 cells; MCF7, 1000nM Palbociclib, 252 Hours): 51.10% and 41.67% and 53.63%
- % Confluency ([1]; MCF7 CDK4 WT/D99N CL4, 50nM Palbociclib, 120 Hours): 66.64% and 78.14% and 82.99%
- % Confluency ([1]; MCF7 CDK4 WT/D99N CL4, 50nM Palbociclib, 132 Hours): 76.88% and 86.20% and 95.31%
- % Confluency ([1]; MCF7 CDK4 WT/D99N CL4, 50nM Palbociclib, 144 Hours): 88.78% and 88.02% and 99.54%
- % Confluency ([1]; MCF7 CDK4 WT/D99N CL4, 50nM Palbociclib, 156 Hours): 97.35% and 91.36% and 99.84%
- % Confluency ([1]; MCF7 CDK4 WT/D99N CL4, 50nM Palbociclib, 168 Hours): 99.58% and 95.17% and 99.79%
- % Confluency ([1]; MCF7 CDK4 WT/D99N CL4, 50nM Palbociclib, 180 Hours): 99.96% and 97.94% and 99.94%
- % Confluency ([1]; MCF7 CDK4 WT/D99N CL4, 50nM Palbociclib, 192 Hours): 99.99% and 99.20%
- % Confluency ([1]; MCF7 CDK4 WT/D99N CL4, 50nM Palbociclib, 204 Hours): 99.98% and 99.69%
- % Confluency ([1]; MCF7 CDK4 WT/D99N CL4, 50nM Palbociclib, 216 Hours): 99.98% and 99.82% and 99.94%
- % Confluency ([1]; MCF7 CDK4 WT/D99N CL4, 50nM Palbociclib, 228 Hours): 99.94% and 99.85% and 99.93%
- % Confluency ([1]; MCF7 CDK4 WT/D99N CL4, 50nM Palbociclib, 240 Hours): 99.95% and 99.87%
- % Confluency ([1]; MCF7 CDK4 WT/D99N CL4, 50nM Palbociclib, 252 Hours): 99.94% and 99.88% and 99.86%
- % Confluency ([1]; MCF7 CDK4 WT/D99N CL4, 100nM Palbociclib, 120 Hours): 64.25% and 78.80% and 72.42%
- % Confluency ([1]; MCF7 CDK4 WT/D99N CL4, 100nM Palbociclib, 132 Hours): 72.93% and 86.07% and 87.54%
- % Confluency ([1]; MCF7 CDK4 WT/D99N CL4, 100nM Palbociclib, 144 Hours): 85.75% and 88.44% and 96.06%
- % Confluency ([1]; MCF7 CDK4 WT/D99N CL4, 100nM Palbociclib, 156 Hours): 96.05% and 92.25% and 98.68%
- % Confluency ([1]; MCF7 CDK4 WT/D99N CL4, 100nM Palbociclib, 168 Hours): 99.30% and 96.26% and 98.93%
- % Confluency ([1]; MCF7 CDK4 WT/D99N CL4, 100nM Palbociclib, 180 Hours): 99.65% and 98.99% and 99.51%
- % Confluency ([1]; MCF7 CDK4 WT/D99N CL4, 100nM Palbociclib, 192 Hours): 99.96% and 99.76% and 99.95%
- % Confluency ([1]; MCF7 CDK4 WT/D99N CL4, 100nM Palbociclib, 204 Hours): 99.99% and 99.85%
- % Confluency ([1]; MCF7 CDK4 WT/D99N CL4, 100nM Palbociclib, 216 Hours): 99.99% and 99.94% and 99.96%
- % Confluency ([1]; MCF7 CDK4 WT/D99N CL4, 100nM Palbociclib, 228 Hours): 99.97% and 99.94% and 99.91%
- % Confluency ([1]; MCF7 CDK4 WT/D99N CL4, 100nM Palbociclib, 240 Hours): 99.95% and 99.92% and 99.93%
- % Confluency ([1]; MCF7 CDK4 WT/D99N CL4, 100nM Palbociclib, 252 Hours): 99.96% and 99.93%
- % Confluency ([1]; MCF7 CDK4 WT/D99N CL4, 500nM Palbociclib, 120 Hours): 40.34% and 66.78% and 58.85%
- % Confluency ([1]; MCF7 CDK4 WT/D99N CL4, 500nM Palbociclib, 132 Hours): 50.29% and 74.63% and 71.04%
- % Confluency ([1]; MCF7 CDK4 WT/D99N CL4, 500nM Palbociclib, 144 Hours): 61.64% and 76.28% and 83.21%
- % Confluency ([1]; MCF7 CDK4 WT/D99N CL4, 500nM Palbociclib, 156 Hours): 70.40% and 81.62% and 90.78%
- % Confluency ([1]; MCF7 CDK4 WT/D99N CL4, 500nM Palbociclib, 168 Hours): 83.18% and 86.41% and 91.67%
- % Confluency ([1]; MCF7 CDK4 WT/D99N CL4, 500nM Palbociclib, 180 Hours): 94.98% and 90.78% and 94.80%
- % Confluency ([1]; MCF7 CDK4 WT/D99N CL4, 500nM Palbociclib, 192 Hours): 98.48% and 93.58% and 97.95%
- % Confluency ([1]; MCF7 CDK4 WT/D99N CL4, 500nM Palbociclib, 204 Hours): 99.63% and 95.39% and 99.23%
- % Confluency ([1]; MCF7 CDK4 WT/D99N CL4, 500nM Palbociclib, 216 Hours): 99.86% and 96.33% and 99.61%
- % Confluency ([1]; MCF7 CDK4 WT/D99N CL4, 500nM Palbociclib, 228 Hours): 99.80% and 97.19% and 99.65%
- % Confluency ([1]; MCF7 CDK4 WT/D99N CL4, 500nM Palbociclib, 240 Hours): 99.69% and 97.59% and 99.70%
- % Confluency ([1]; MCF7 CDK4 WT/D99N CL4, 500nM Palbociclib, 252 Hours): 99.67% and 98.11% and 99.79%
- % Confluency ([1]; MCF7 CDK4 WT/D99N CL4, 1000nM Palbociclib, 132 Hours): 33.69% and 63.26% and 52.80%
- % Confluency ([1]; MCF7 CDK4 WT/D99N CL4, 1000nM Palbociclib, 144 Hours): 40.24% and 66.75% and 64.14%
- % Confluency ([1]; MCF7 CDK4 WT/D99N CL4, 1000nM Palbociclib, 156 Hours): 46.30% and 72.91% and 73.04%
- % Confluency ([1]; MCF7 CDK4 WT/D99N CL4, 1000nM Palbociclib, 168 Hours): 55.90% and 78.03% and 74.78%
- % Confluency ([1]; MCF7 CDK4 WT/D99N CL4, 1000nM Palbociclib, 180 Hours): 72.92% and 83.25% and 82.01%
- % Confluency ([1]; MCF7 CDK4 WT/D99N CL4, 1000nM Palbociclib, 192 Hours): 83.09% and 86.79% and 89.83%
- % Confluency ([1]; MCF7 CDK4 WT/D99N CL4, 1000nM Palbociclib, 204 Hours): 89.65% and 89.84% and 94.66%
- % Confluency ([1]; MCF7 CDK4 WT/D99N CL4, 1000nM Palbociclib, 216 Hours): 95.08% and 91.46% and 96.59%
- % Confluency ([1]; MCF7 CDK4 WT/D99N CL4, 1000nM Palbociclib, 228 Hours): 97.92% and 92.07% and 97.14%
- % Confluency ([1]; MCF7 CDK4 WT/D99N CL4, 1000nM Palbociclib, 240 Hours): 98.97% and 92.82% and 97.47%
- % Confluency ([1]; MCF7 CDK4 WT/D99N CL4, 1000nM Palbociclib, 252 Hours): 99.08% and 93.26% and 97.80%
